Holding throughout (assay): affinity purification with mass spectrometry
The target in test [1] is T1, Halo-tagged BRMS1 wild-type (BRMS1^WT).
T1 sequence: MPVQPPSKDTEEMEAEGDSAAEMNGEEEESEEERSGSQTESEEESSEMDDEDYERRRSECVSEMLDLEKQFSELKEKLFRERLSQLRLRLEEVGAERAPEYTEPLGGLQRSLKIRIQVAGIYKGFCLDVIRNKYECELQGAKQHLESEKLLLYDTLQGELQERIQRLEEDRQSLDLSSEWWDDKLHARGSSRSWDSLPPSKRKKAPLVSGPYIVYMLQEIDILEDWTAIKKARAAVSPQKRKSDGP

Chains of the proteins cited; added tags and fusions are not shown.
UniProt Q13547: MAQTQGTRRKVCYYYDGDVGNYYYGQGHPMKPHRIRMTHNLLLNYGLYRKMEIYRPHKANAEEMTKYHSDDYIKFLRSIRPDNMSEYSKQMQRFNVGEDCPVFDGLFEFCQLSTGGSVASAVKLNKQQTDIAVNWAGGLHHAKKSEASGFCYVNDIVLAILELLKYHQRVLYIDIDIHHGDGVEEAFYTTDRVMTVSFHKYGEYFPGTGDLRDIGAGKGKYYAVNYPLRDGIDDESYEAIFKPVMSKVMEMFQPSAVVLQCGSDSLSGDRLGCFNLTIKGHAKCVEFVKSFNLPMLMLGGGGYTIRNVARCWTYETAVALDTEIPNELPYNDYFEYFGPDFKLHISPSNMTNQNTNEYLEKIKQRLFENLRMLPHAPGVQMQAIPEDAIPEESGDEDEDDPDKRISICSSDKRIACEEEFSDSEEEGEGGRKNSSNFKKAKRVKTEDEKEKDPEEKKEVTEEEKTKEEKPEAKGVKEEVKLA
UniProt Q92769: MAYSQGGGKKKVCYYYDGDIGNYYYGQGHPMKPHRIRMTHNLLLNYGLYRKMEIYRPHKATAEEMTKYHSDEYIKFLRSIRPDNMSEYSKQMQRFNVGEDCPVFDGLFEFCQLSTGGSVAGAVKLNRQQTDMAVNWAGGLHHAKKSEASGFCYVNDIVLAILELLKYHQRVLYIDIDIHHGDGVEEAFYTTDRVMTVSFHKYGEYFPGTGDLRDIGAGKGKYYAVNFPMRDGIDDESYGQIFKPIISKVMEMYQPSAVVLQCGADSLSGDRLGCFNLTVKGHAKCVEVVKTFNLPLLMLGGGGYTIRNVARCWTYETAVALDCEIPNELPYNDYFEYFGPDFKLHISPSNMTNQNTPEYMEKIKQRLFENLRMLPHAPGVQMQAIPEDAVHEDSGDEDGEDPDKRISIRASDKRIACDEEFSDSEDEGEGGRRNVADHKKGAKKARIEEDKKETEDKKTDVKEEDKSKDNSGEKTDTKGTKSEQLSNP

Test [2] addresses T2, Halo-tagged BRMS1^S237D.
T2 sequence: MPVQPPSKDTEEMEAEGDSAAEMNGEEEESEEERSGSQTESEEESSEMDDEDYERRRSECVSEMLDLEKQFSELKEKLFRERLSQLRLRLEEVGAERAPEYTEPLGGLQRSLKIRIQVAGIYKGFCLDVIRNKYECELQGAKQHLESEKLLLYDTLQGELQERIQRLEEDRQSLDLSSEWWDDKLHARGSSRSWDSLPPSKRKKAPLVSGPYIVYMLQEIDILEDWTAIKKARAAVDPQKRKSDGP

Test [3] has as its target T3, Halo-tagged BRMS1^S237A.
T3 sequence: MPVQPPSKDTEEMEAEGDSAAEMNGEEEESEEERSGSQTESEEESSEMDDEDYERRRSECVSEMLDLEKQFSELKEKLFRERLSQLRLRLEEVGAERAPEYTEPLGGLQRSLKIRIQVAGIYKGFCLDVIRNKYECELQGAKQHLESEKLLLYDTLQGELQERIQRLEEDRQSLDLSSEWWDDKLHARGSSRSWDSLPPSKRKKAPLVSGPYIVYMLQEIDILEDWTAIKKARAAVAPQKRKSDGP

Test [4] has as its target T4, Halo-tagged BRMS1 aa 1-229 (BRMS1^1-229).
T4 sequence: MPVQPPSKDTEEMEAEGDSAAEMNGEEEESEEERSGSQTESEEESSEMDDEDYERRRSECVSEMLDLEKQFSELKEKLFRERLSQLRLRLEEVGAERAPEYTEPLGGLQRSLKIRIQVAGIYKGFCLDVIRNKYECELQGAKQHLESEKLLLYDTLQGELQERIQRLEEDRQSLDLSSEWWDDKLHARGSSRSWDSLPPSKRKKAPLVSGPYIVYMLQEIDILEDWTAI

Test [5] addresses T1, Halo-tagged BRMS1 wild-type (BRMS1^WT). The source holds these as a separate data set.
Test [6] concerns the target T2, Halo-tagged BRMS1^S237D. The source holds these as a separate data set.
In test [7] the target is T3, Halo-tagged BRMS1^S237A. This is another data set of the same source.

The text below walks through data of doi:10.1101/2021.02.04.429764.

Read-outs that look alike come from different tables or passages of the source. Results are given in words; binding and its absence hold for the method and conditions named. Binding seen in cells or lysates may run through a third protein. A yes stands for co-enrichment or nearness to the bait. Other partners may have been found. Tags and fused reporters may be left off the sequences shown.

Take “Cyclin Dependent Kinase Inhibitor 2A (CDKN2A) (human (endogenous in HEK293T))”: the binding result in test [1] was “binds”. Consider HDAC1 (from UniProt Q13547 1-482), for which the binding result in test [1] and in test [2] was “binds” each time. In the case of HDAC2 (from UniProt Q92769 1-488), the binding result in test [1], in test [3] and in test [2] was “binds” each time.

B1: TRMT2A (TRNA Methyltransferase 2 Homolog A) (protein, UniProt Q8IZ69 1-625)
chain: MSENLDNEGPKPMESCGQESSSALSCPTVSVPPAAPAALEEVEKEGAGAATGPGPQPGLYSYIRDDLFTSEIFKLELQNVPRHASFSDVRRFLGRFGLQPHKTKLFGQPPCAFVTFRSAAERDKALRVLHGALWKGRPLSVRLARPKADPMARRRRQEGESEPPVTRVADVVTPLWTVPYAEQLERKQLECEQVLQKLAKEIGSTNRALLPWLLEQRHKHNKACCPLEGVRPSPQQTEYRNKCEFLVGVGVDGEDNTVGCRLGKYKGGTCAVAAPFDTVHIPEATKQVVKAFQEFIRSTPYSAYDPETYTGHWKQLTVRTSRRHQAMAIAYFHPQKLSPEELAELKTSLAQHFTAGPGRASGVTCLYFVEEGQRKTPSQEGLPLEHVAGDRCIHEDLLGLTFRISPHAFFQVNTPAAEVLYTVIQDWAQLDAGSMVLDVCCGTGTIGLALARKVKRVIGVELCPEAVEDARVNAQDNELSNVEFHCGRAEDLVPTLVSRLASQHLVAILDPPRAGLHSKVILAIRRAKNLRRLLYVSCNPRAAMGNFVDLCRAPSNRVKGIPFRPVKAVAVDLFPQTPHCEMLILFERVEHPNGTGVLGPHSPPAQPTPGPPDNTLQETGTFPSS
Regarding B1, the binding entry in test [4] and in test [5] was “binds” in each case.

B2: SUDS3 (protein, UniProt Q9H7L9 1-328)
chain: MSAAGLLAPAPAQAGAPPAPEYYPEEDEELESAEDDERSCRGRESDEDTEDASETDLAKHDEEDYVEMKEQMYQDKLASLKRQLQQLQEGTLQEYQKRMKKLDQQYKERIRNAELFLQLETEQVERNYIKEKKAAVKEFEDKKVELKENLIAELEEKKKMIENEKLTMELTGDSMEVKPIMTRKLRRRPNDPVPIPDKRRKPAPAQLNYLLTDEQIMEDLRTLNKLKSPKRPASPSSPEHLPATPAESPAQRFEARIEDGKLYYDKRWYHKSQAIYLESKDNQKLSCVISSVGANEIWVRKTSDSTKMRIYLGQLQRGLFVIRRRSAA
With B2, in test [6], the binding result is “binds”.

B3: BBX (protein, UniProt Q8WY36 1-941)
chain: MKGSNRNKDHSAEGEGVGKRPKRKCLQWHPLLAKKLLDFSEEEEEEDEEEDIDKVQLLGADGLEQDVGETEDDESPEQRARRPMNAFLLFCKRHRSLVRQEHPRLDNRGATKILADWWAVLDPKEKQKYTDMAKEYKDAFMKANPGYKWCPTTNKPVKSPTPTVNPRKKLWAFPSDSSRDLPSPKKAKTEEMPQLNFGMADPTQMGGLSMLLLAGEHALGTPEVSSGTCRPDVSESPELRQKSPLFQFAEISSSTSHSDASTKQCQTSALFQFAEISSNTSQLGGAEPVKRCGKSALFQLAEMCLASEGMKMEESKLIKAKESDGGRIKELEKGKEEKEIKMEKTDETRLQKEAEFEKSAKENLRDSKELRNFEALQIDDIMAIKMEDPKEIRKEELEEDHKCSHFPDFSYSASSKIIISDVPSRKDHMCHPHGIMIIEDPAALNKPEKLKKKKKKSKMDRHGNDKSTPKKTCKKRQSSESDIESVIYTIEAVAKGDWGIEKLGDTPRKKVRTSSSGKGSILDAKPPKKKVKSREKKMSKEKSSDTTKESRPPDFISISASKNISGETPEGIKAEPLTPMEDALPPSLSGQAKPEDSDCHRKIETCGSRKSERSCKGALYKTLVSEGMLTSLRANVDRGKRSSGKGNSSDHEGCWNEESWTFSQSGTSGSKKFKKTKPKEDCLLGSAKLDEEFEKKFNSLPQYSPVTFDRKCVPVPRKKKKTGNVSSEPTKTSKGPFQSQKKNLFHKIVSKYKHKKEKPNVPEKGSGDKWSNKQLFLDAIHPTEAIFSEDRNTMEPVHKVKNIPSIFNTPEPTTTQEPLVGSQKRKARKTKITHLVRTADGRVSPAGGTLDDKPKEQLQRSLPKATETDCNDKCSHNTEVGETRSSTPEMPAVSAFFSLAALAEVAAMENVHRGQRSTPLTHDGQPKEMPQAPVLISCADQ
For the molecule B3, the binding entry in test [7] and in test [6] was “binds” each time.

B4: DNA Polymerase Epsilon Subunit 2 (POLE2) (protein, UniProt P56282 1-527)
chain: MAPERLRSRALSAFKLRGLLLRGEAIKYLTEALQSISELELEDKLEKIINAVEKQPLSSNMIERSVVEAAVQECSQSVDETIEHVFNIIGAFDIPRFVYNSERKKFLPLLMTNHPAPNLFGTPRDKAEMFRERYTILHQRTHRHELFTPPVIGSHPDESGSKFQLKTIETLLGSTTKIGDAIVLGMITQLKEGKFFLEDPTGTVQLDLSKAQFHSGLYTEACFVLAEGWFEDQVFHVNAFGFPPTEPSSTTRAYYGNINFFGGPSNTSVKTSAKLKQLEEENKDAMFVFLSDVWLDQVEVLEKLRIMFAGYSPAPPTCFILCGNFSSAPYGKNQVQALKDSLKTLADIICEYPDIHQSSRFVFVPGPEDPGFGSILPRPPLAESITNEFRQRVPFSVFTTNPCRIQYCTQEITVFREDLVNKMCRNCVRFPSSNLAIPNHFVKTILSQGHLTPLPLYVCPVYWAYDYALRVYPVPDLLVIADKYDPFTTTNTECLCINPGSFPRSGFSFKVFYPSNKTVEDSKLQGF
B4: the binding result in test [5] is “binds”.
